Source: article PMC6615859
No constants are given. Whether binding was seen depends on the method and setting. In cells and extracts the contact can be indirect. Some results given as binding are weak or reduced against the parent protein; the word gives no strength.

Protein sequences, listed by entry. Tags and fused reporters are not part of them. Lines headed by an entry give the natural chain unless they say otherwise; changes in a name come on top.
UniProt Q7Z2W4: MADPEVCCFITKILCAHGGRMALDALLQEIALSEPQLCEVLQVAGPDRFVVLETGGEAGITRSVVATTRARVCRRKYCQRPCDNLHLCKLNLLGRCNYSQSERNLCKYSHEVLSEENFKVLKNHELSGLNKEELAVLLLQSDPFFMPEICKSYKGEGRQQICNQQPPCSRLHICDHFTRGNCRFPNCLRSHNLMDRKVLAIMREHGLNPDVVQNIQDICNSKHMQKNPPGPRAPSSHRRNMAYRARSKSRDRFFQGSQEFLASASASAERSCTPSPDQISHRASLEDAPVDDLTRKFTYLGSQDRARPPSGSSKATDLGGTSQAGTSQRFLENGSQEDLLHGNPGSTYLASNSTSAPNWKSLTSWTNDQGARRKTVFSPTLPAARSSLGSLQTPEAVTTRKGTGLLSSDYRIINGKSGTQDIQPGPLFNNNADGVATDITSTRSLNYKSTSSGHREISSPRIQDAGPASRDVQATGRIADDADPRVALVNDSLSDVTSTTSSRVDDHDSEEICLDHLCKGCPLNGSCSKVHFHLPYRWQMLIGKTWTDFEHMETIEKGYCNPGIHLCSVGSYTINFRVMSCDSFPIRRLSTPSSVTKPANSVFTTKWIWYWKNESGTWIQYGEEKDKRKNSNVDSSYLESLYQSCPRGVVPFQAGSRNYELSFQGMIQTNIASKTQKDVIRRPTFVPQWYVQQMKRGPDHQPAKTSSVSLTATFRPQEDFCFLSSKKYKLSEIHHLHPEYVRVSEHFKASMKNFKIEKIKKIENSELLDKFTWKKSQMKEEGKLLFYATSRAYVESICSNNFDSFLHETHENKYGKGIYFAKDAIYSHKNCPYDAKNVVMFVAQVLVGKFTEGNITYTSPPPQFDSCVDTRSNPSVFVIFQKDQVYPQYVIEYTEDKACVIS
UniProt O15037: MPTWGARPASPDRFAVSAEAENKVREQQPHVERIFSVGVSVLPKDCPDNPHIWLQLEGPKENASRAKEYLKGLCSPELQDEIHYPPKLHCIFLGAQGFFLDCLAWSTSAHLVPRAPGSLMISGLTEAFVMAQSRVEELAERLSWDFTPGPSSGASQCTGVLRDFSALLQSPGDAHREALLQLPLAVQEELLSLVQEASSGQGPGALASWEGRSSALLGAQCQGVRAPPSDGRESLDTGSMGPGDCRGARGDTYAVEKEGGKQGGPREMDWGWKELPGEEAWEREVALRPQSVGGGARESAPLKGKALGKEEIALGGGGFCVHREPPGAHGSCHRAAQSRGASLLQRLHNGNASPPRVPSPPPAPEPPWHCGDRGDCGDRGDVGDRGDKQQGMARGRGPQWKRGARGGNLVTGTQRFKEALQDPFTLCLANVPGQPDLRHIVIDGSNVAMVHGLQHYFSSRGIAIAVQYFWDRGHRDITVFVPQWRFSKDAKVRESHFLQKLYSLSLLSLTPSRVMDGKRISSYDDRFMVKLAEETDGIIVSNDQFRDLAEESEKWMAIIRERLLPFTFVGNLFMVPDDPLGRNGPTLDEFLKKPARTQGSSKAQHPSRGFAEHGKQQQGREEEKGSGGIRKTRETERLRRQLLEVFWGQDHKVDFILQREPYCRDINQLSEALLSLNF
UniProt Q14258: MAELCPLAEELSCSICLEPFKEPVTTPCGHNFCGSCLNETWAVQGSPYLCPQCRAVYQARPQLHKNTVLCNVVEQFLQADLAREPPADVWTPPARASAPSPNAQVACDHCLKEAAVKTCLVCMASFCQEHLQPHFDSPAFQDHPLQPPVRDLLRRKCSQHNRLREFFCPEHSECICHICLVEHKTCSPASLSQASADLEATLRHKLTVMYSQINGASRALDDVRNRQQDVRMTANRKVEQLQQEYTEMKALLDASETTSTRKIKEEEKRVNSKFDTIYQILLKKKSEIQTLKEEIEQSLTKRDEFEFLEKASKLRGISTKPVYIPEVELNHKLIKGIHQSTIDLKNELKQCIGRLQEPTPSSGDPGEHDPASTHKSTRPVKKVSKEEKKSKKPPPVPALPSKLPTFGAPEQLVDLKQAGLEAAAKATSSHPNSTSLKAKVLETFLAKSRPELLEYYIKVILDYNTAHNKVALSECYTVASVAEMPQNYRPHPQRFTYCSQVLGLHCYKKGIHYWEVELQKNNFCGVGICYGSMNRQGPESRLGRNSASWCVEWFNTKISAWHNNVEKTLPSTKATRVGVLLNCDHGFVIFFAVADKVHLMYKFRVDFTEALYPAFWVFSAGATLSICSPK

How the values were obtained:
[1] = target: ZAP-L, endogenous in HEK293T cells (human (endogenous in HEK293T)) (UniProt Q7Z2W4); assay: co-IP; anti-ZAP antibody (Abcam) and Protein G Dynabeads on post-nuclear supernatants of HEK293T cells transfected with KHNYN-FLAG; blot for FLAG; lysis buffer 0.5% NP-40, 150 mM KCl, 10 mM HEPES pH 7.5, 3 mM MgCl2; 4°C
KHNYN-1-FLAG (human) [2] = target: KHNYN-1-FLAG (human) (UniProt O15037); assay: co-IP; anti-FLAG antibody and Protein G Dynabeads on post-nuclear supernatants of HEK293T cells transfected with KHNYN-FLAG; blots for ZAP and TRIM25; lysis buffer 0.5% NP-40, 150 mM KCl, 10 mM HEPES pH 7.5, 3 mM MgCl2; 4°C; also in Control, TRIM25 CRISPR and ZAP CRISPR HEK293T cells
KHNYN-1-FLAG (human) [3] = target: KHNYN-1-FLAG (human) (UniProt O15037); assay: co-IP; HEK293T cells transfected with pHA-ZAP-L and KHNYN-FLAG; post-nuclear supernatant treated with RNase A for 30 min at 37°C, then anti-FLAG antibody and Protein G Dynabeads; blot for ZAP

KHNYN-1-FLAG (from UniProt O15037 1-678)
binding [1]: binds

ZAP-L, endogenous in HEK293T cells (from UniProt Q7Z2W4-1 1-902)
binding (KHNYN-1-FLAG (human) [2]): binds

TRIM25, endogenous in HEK293T cells (from UniProt Q14258 1-630)
binding (KHNYN-1-FLAG (human) [2]): binds

HA-ZAP-L (from UniProt Q7Z2W4-1 1-902)
binding (KHNYN-1-FLAG (human) [3]): binds
